# The list does not hold the whole screen: it is rich in T/C values a quarter to a half above the control, in often repeated tests (any T/C) and in doses without a T/C. Other doses and runs of a compound stand elsewhere. T/C gives the treated animals as a percentage of the vehicle group. Some doses have a count of surviving animals in place of a T/C: the source holds a T/C of zero for them, seemingly a mark for toxic or unscored doses. Some survivor counts are full or nearly so, which does not show that the dose was tolerated: the source hardly ever lists a survival T/C far under the control, and the zero likely stands for such cases as well. Counts of survivors are from the toxicity check (mostly the fifth day) where no day follows; animals may have died later. Schedules are NCI's codes, taken here to give the interval after Q, in days (D) or hours (H), and the number of doses after X. Some schedules carry Z or #; the key to these is not given. Some doses were run more than once; the results are listed from low to high. For survival time, the PubChem record calls one and a half times the control and up active, and a quarter to a half above the control has no call in these data; cut-offs in other NCI protocols can differ. Some T/C values carry the count of animals alive at the toxicity check (mostly the fifth day); where none is given, no animal had died by that day.
# Test system: L1210 leukemia ip in BDF1 mice, survival T/C
# Assay: NCI In Vivo Anticancer Drug Screen. Data for tumor model L1210 Leukemia (intraperitoneal) in B6D2F1 (BDF1) mice
# Details: T/C endpoint: mean survival time, higher T/C = longer survival
smiles,measurement,setting,value
[N-]=[N+]=CC(=O)NCC(=O)NN,T/C,"dose: 200.0 mg/kg/injection, schedule: Q01DX Z (ip), vehicle: other",148 % of control
same,T/C,"dose: 200.0 mg/kg/injection, schedule: Q02DX Z (ip), vehicle: saline",148 % of control
same,T/C,"dose: 250.0 mg/kg/injection, schedule: Q01DX005 (ip), vehicle: other",141 % of control
same,T/C,"dose: 250.0 mg/kg/injection, schedule: Q01DX009 (ip), vehicle: other",142 % of control
same,T/C,"dose: 250.0 mg/kg/injection, schedule: Q01DX009 (ip), vehicle: saline",133 % of control
same,T/C,"dose: 250.0 mg/kg/injection, schedule: Q02DX009 (ip), vehicle: saline",136 % of control
same,T/C,"dose: 300.0 mg/kg/injection, schedule: Q01DX Z (ip), vehicle: water",126 % of control
same,T/C,"dose: 375.0 mg/kg/injection, schedule: Q01DX Z (ip), vehicle: saline",127 % of control
same,T/C,"dose: 375.0 mg/kg/injection, schedule: Q01DX Z (ip), vehicle: water",130 % of control
same,T/C,"dose: 400.0 mg/kg/injection, schedule: Q01DX009 (ip), vehicle: other",127 % of control
same,T/C,"dose: 400.0 mg/kg/injection, schedule: Q01DX Z (ip), vehicle: water",129 % of control
same,T/C,"dose: 400.0 mg/kg/injection, schedule: Q01DX Z (sc), vehicle: other",125 % of control
same,T/C,"dose: 400.0 mg/kg/injection, schedule: Q02DX005 (ip), vehicle: saline",129 % of control
same,T/C,"dose: 400.0 mg/kg/injection, schedule: Q02DX Z (ip), vehicle: other",137 % of control
same,T/C,"dose: 400.0 mg/kg/injection, schedule: Q03DX Z (ip), vehicle: other",128 % of control
same,T/C,"dose: 500.0 mg/kg/injection, schedule: Q01DX009 (ip), vehicle: other",133 % of control
same,T/C,"dose: 500.0 mg/kg/injection, schedule: Q01DX017 (ip), vehicle: saline",130 % of control
same,T/C,"dose: 500.0 mg/kg/injection, schedule: Q01DX Z (ip), vehicle: saline",136 % of control
same,T/C,"dose: 500.0 mg/kg/injection, schedule: Q01DX Z (ip), vehicle: water",142 % of control
same,T/C,"dose: 500.0 mg/kg/injection, schedule: Q02DX009 (ip), vehicle: saline",139 % of control
same,T/C,"dose: 500.0 mg/kg/injection, schedule: Q04DX003 (ip), vehicle: other",142 % of control
same,T/C,"dose: 500.0 mg/kg/injection, schedule: Q04DX003 (ip), vehicle: saline",132 % of control
same,T/C,"dose: 500.0 mg/kg/injection, schedule: Q08DX002 (ip), vehicle: other",135 % of control
same,T/C,"dose: 500.0 mg/kg/injection, schedule: Q08DX002 (ip), vehicle: saline",131 % of control
same,T/C,"dose: 600.0 mg/kg/injection, schedule: Q01DX005 (ip), vehicle: other",136 % of control
same,T/C,"dose: 600.0 mg/kg/injection, schedule: Q01DX009 (ip), vehicle: other",136 % of control [9 of 10 alive]
same,T/C,"dose: 600.0 mg/kg/injection, schedule: Q02DX005 (ip), vehicle: saline",144 % of control
same,survivor count,"dose: 700.0 mg/kg/injection, schedule: Q01DX009 (sc), vehicle: other",3 of 10
same,survivor count,"dose: 750.0 mg/kg/injection, schedule: Q01DX009 (ip), vehicle: other",5 of 6
same,survivor count,"dose: 750.0 mg/kg/injection, schedule: Q01DX Z (ip), vehicle: other",6 of 6
same,survivor count,"dose: 750.0 mg/kg/injection, schedule: Q01DX Z (ip), vehicle: saline",5 of 6
same,survivor count,"dose: 750.0 mg/kg/injection, schedule: Q01DX Z (ip), vehicle: water",6 of 6
same,T/C,"dose: 750.0 mg/kg/injection, schedule: Q08DX002 (ip), vehicle: other",131 % of control
same,T/C,"dose: 800.0 mg/kg/injection, schedule: Q01DX Z (ip), vehicle: other",128 % of control
same,T/C,"dose: 800.0 mg/kg/injection, schedule: Q## X024 (ip), vehicle: water",131 % of control
same,T/C,"dose: 1000.0 mg/kg/injection, schedule: Q01DX001 (ip), vehicle: other",135 % of control
same,survivor count,"dose: 1000.0 mg/kg/injection, schedule: Q01DX017 (ip), vehicle: saline",8 of 10
same,T/C,"dose: 1000.0 mg/kg/injection, schedule: Q08DX002 (ip), vehicle: other",136 % of control
same,T/C,"dose: 1100.0 mg/kg/injection, schedule: Q## X024 (ip), vehicle: water",134 % of control
same,T/C,"dose: 1200.0 mg/kg/injection, schedule: Q01DX Z (ip), vehicle: other",135 and 140 % of control
same,T/C,"dose: 1500.0 mg/kg/injection, schedule: Q04DX003 (ip), vehicle: other",132 % of control
same,T/C,"dose: 1600.0 mg/kg/injection, schedule: Q01DX Z (ip), vehicle: other",135 % of control
same,survivor count,"dose: 1600.0 mg/kg/injection, schedule: Q01DX Z (oral), vehicle: other",3 of 6
same,survivor count,"dose: 1600.0 mg/kg/injection, schedule: Q01DX Z (oral), vehicle: saline",3 of 6
same,T/C,"dose: 2000.0 mg/kg/injection, schedule: Q01DX001 (ip), vehicle: saline",146 % of control [9 of 10 alive]
same,survivor count,"dose: 2000.0 mg/kg/injection, schedule: Q02DX009 (ip), vehicle: saline",3 of 10
same,survivor count,"dose: 2500.0 mg/kg/injection, schedule: Q01DX001 (ip), vehicle: saline",4 of 10
same,survivor count,"dose: 2500.0 mg/kg/injection, schedule: Q08DX002 (ip), vehicle: saline",3 of 10
CCCN(CCC)C(=S)CC,survivor count,"dose: 400.0 mg/kg/injection, schedule: Q04DX002 (ip), vehicle: saline with Tween-80",1 of 3
COC(=O)N1C2C=CC(C2)N1C(=O)OC,survivor count,"dose: 200.0 mg/kg/injection, schedule: Q01DX009 (ip), vehicle: DMSO",1 of 6
same,survivor count,"dose: 400.0 mg/kg/injection, schedule: Q04DX003 (ip), vehicle: DMSO",0 of 6
CC(=O)Nn1cnc2c(SCc3ccccc3)ncnc21,T/C,"dose: 400.0 mg/kg/injection, schedule: Q01DX001 (ip), vehicle: other",132 [5 of 6 alive] and 134 % of control
same,survivor count,"dose: 600.0 mg/kg/injection, schedule: Q01DX001 (ip), vehicle: other",0 of 6
C[N+](C)(C)CCCCCCCCCC[N+](C)(C)C,survivor count,"dose: 1.56 mg/kg/injection, schedule: Q04DX003 (ip), vehicle: saline with Tween-80",6 of 6
same,survivor count,"dose: 3.13 mg/kg/injection, schedule: Q04DX003 (ip), vehicle: saline with Tween-80",4 of 6
same,survivor count,"dose: 6.25 mg/kg/injection, schedule: Q04DX003 (ip), vehicle: saline with Tween-80",0 of 6 and 1 of 6
same,survivor count,"dose: 12.5 mg/kg/injection, schedule: Q04DX003 (ip), vehicle: saline with Tween-80",0 of 6
same,survivor count,"dose: 25.0 mg/kg/injection, schedule: Q04DX003 (ip), vehicle: saline with Tween-80",0 of 6
same,survivor count,"dose: 25.0 mg/kg/injection, schedule: Q04DX003 (ip), vehicle: saline",0 of 6
same,survivor count,"dose: 50.0 mg/kg/injection, schedule: Q04DX003 (ip), vehicle: saline",0 of 6
same,survivor count,"dose: 100.0 mg/kg/injection, schedule: Q04DX003 (ip), vehicle: saline",0 of 6
same,survivor count,"dose: 200.0 mg/kg/injection, schedule: Q04DX003 (ip), vehicle: saline",0 of 6
same,survivor count,"dose: 400.0 mg/kg/injection, schedule: Q04DX003 (ip), vehicle: saline",0 of 6
CSc1ncnc2c1ncn2CO,T/C,"dose: 85.0 mg/kg/injection, schedule: Q01DX009 (ip), vehicle: saline",127 % of control
same,T/C,"dose: 92.0 mg/kg/injection, schedule: Q01DX009 (ip), vehicle: carboxymethylcellulose (CMC)",128 % of control
same,survivor count,"dose: 185.0 mg/kg/injection, schedule: Q01DX009 (ip), vehicle: carboxymethylcellulose (CMC)",0 of 6
same,survivor count,"dose: 185.0 mg/kg/injection, schedule: Q01DX009 (ip), vehicle: saline",2 of 6
same,survivor count,"dose: 240.0 mg/kg/injection, schedule: Q01DX009 (ip), vehicle: Klucel (hydroxypropylcellulose) (HPC)",0 of 6
same,T/C,"dose: 250.0 mg/kg/injection, schedule: Q01DX001 (ip), vehicle: saline",131 % of control [4 of 6 alive]
same,survivor count,"dose: 375.0 mg/kg/injection, schedule: Q01DX001 (ip), vehicle: saline",0 of 4
